# Test results as given in PubChem BioAssay AID624404 (Broad Institute, 2012).
# The campaign covered roughly 1,800 compounds. About 710 (39%) were called active. The shares of active, inactive and inconclusive entries below differ from those in the screen.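 Rule for the calls: active = luciferase signal rise whose fitted curve crosses a set activity limit at or below the top valid tested dose; inconclusive = flat fit with 30 to 70% rise, or poor fit; inactive = signal falling, flat within 30%, or crossing above top dose.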
# Experiment: luciferase activators in glycosylation-insensitive reporter cells, dose response, counter-screen for N-linked glycosylation inhibitor project, D54 LucT cells, luminescence, cherry pick (AID 624404);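 note: 0% = median neutral control signal and 100% = twice that signal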
# Conditions: D54 LucT luciferase reporter counterscreen, 24 h; at 19.5 µM (top of the series) unless noted
row,Structure (SMILES),activity increase (luciferase signal)
1,O=C(CC1Sc2ccccc2NC1=O)NNc1cccc(Cl)c1Cl (stereo not given),inactive: 43.9%
2,CC(=O)Nc1cccc(-c2ccnc3c2CC(C)(C(=O)NCc2cccs2)O3)c1 (stereo not given),inconclusive: 48%
3,COc1ccc(/C=N\NC(=O)c2ccccc2F)cc1COc1ccc(F)cc1F,inconclusive: 24.7%
4,Cn1nc(-c2ccc(Cl)cc2)c2cc(C(=O)NC3CC3)sc21,inconclusive: 65.6%
5,Cc1nc(C)c(C(=O)N/N=C/c2c[nH]c3ccccc23)s1,inconclusive: 50.8%
6,COc1ccc(Cl)cc1NC(=O)CN(C)CC(=O)Nc1ccccc1N1CCOCC1,inconclusive: 82.6%
7,CCOc1ccc(/C=N/NC(=O)c2cc3c(OC)cccc3[nH]2)cc1,inconclusive: 75.9%
8,COc1ccc(N(C(=O)CCl)C(C(=O)NC2CCCCC2)c2cccnc2)cc1 (stereo not given),inconclusive: -85.9%
9,CCOC(=O)c1cc2sccc2n1CC(=O)N1c2ccccc2CC1C (stereo not given),inconclusive: 296%
10,Cc1c(Cl)ccc2c(C(=O)Nc3cc(C(C)(C)C)on3)cc(-c3ccccn3)nc12,inconclusive: 13.1%
11,COc1cccc(Oc2ccc(C(F)(F)F)cc2NC(=O)CN2C(=O)NC3(CCCC3)C2=O)c1,inactive: 19.9%
12,CCn1c(=O)cc(SCC(=O)NCCCN2CCN(c3ccc(F)cc3)CC2)c2ccccc21,inconclusive: 39.6%
13,COc1ccc(/C=N/NC(=O)c2ccc(COc3ccccc3Cl)o2)c(OC)c1C,inactive: 27.4%
14,CNC(=O)c1cccc2nc3ccccc3nc12,inactive: -11.8%
15,CCC(CC)Nc1ccc(C(CC(N)=O)NC(=O)Cc2ccc(Br)cc2)cc1[N+](=O)[O-] (stereo not given),inconclusive: 37.9%
16,COc1cc(OC)c2c(-c3cccc(-c4ccoc4)c3)cc(=O)oc2c1,inconclusive: 50.3%
17,CC(=O)c1cccc(-c2ccnc3c2CC(C(=O)NCC2CCOCC2)O3)c1 (stereo not given),inconclusive: 77.6%
18,COc1cc(CCC(=O)Nc2nnc(C)s2)cc(OC)c1OC,inconclusive: 26.3%
19,COc1ccc(CCn2c(=N)c(S(=O)(=O)c3ccc(C)cc3)cc3c(=O)n4ccccc4nc32)cc1,inactive: 255%
20,O=C(N/N=C/c1ccc2c(c1)OCO2)c1cccc2ccccc12,inconclusive: 30.4%
21,c1cnc2nc3c4ccccc4c4ccccc4c3nc2c1,inactive: 14%
22,COc1ccc(Nc2nc(C)nc3sc4c(c23)CCC4)cc1O,inconclusive: 42.3%

row,Structure (SMILES),activity increase (luciferase signal)
1,C[C@H](O)[C@@H]1CN2CCc3c([nH]c4ccccc34)[C@@H]2C[C@@H]1N(C)C(=O)c1ccco1,inconclusive: 36.7%
2,CCc1cccc(NC(=O)CN2C(=O)NC3(CCCCCCC3)C2=O)c1,inconclusive: 36.6%
3,CCN(CC)CCC(=O)Nc1cccc2c1C(=O)c1ccccc1C2=O,inactive: 16.2%
4,Cc1ccc(S(=O)(=O)N2CCCCC2CCNC(=O)C(=O)NCc2ccco2)cc1 (stereo not given),inconclusive: 48.8%
5,Cc1ccc(Cc2c(C)nc3nc(SCC(=O)NCc4ccco4)nn3c2C)cc1,inconclusive: 80.5%
6,O=[N+]([O-])c1cc(S(=O)(=O)C(F)(F)F)ccc1Sc1nc2ccccc2[nH]1,inconclusive: 37.7%
7,COc1ccccc1C1=NOC(COc2ccc3c(C)cc(=O)oc3c2)C1 (stereo not given),inconclusive: 10.3%
8,COc1ccc(CCn2c(=N)c(C(=O)NCCN3CCOCC3)cc3c(=O)n4cccc(C)c4nc32)cc1OC,inactive: 8.4%
9,CC(C)c1ccc(NC(=O)[C@@H](NC(=O)N2CC(=O)Nc3ccccc32)C(C)C)cc1,inactive: 49.1%
10,COc1ccc(Nc2nc(-c3c(C)nc4ncccn34)cs2)cc1,inconclusive: 41.7%
11,CCc1nn(C(C)C(=O)N2CCN(c3ccc(OC)cc3)CC2)c(=O)c2cc3occc3n12 (stereo not given),inconclusive: 29.4%
12,CCOC(=O)c1[nH]c(C)c(C(=O)Nc2cccc(Cl)c2C)c1C,inconclusive: 55.9%
13,CN1CCN(C(c2ccc(Cl)cc2)c2cc(Cl)c3cccnc3c2O)CC1 (stereo not given),inconclusive: 48.1%
14,CN(C)S(=O)(=O)c1ccc(N2CCCC2)c(C(=O)Nc2cccc(F)c2)c1,inactive: 17.2%
15,COc1ccc(NC(=O)C2(C)Cc3c(-c4cccc(NC(C)=O)c4)ccnc3O2)cn1 (stereo not given),inactive: -1.4%
16,Cc1ccc2c(CNCc3ccccc3)cc(=O)oc2c1,inconclusive: 31%
17,COc1cc(/C=C/c2onc(C)c2[N+](=O)[O-])cc(OC)c1OC,inconclusive: 90.7%
18,CCOc1cc(-c2cc(-c3ccccc3)nc(N)c2C#N)ccc1O,inconclusive: 93.4%
19,COc1ccc(C(=O)NC(=C(Cl)Cl)S(=O)(=O)c2ccc(C)cc2)cc1,inconclusive: 56.6%
20,COc1cccc(N2[C@@H](CC(C)=O)c3ccc(/C=C/C(C)=O)cc3S2(=O)=O)c1,inconclusive: 39.8%
21,c1ccc(-c2n[nH]c(-c3ccccc3)c2-c2nc3ccccc3[nH]2)cc1,inactive: -18.4%
22,CCC(C)Nc1nc2ccccc2n2c(C)nnc12 (stereo not given),inconclusive: 49.5%

# Some of the entries above, set out differently:
row	Structure (SMILES)	activity increase (luciferase signal)
5	Cc1ccc(Cc2c(C)nc3nc(SCC(=O)NCc4ccco4)nn3c2C)cc1	inconclusive: 80.5%
7	COc1ccccc1C1=NOC(COc2ccc3c(C)cc(=O)oc3c2)C1 (stereo not given)	inconclusive: 10.3%
8	COc1ccc(CCn2c(=N)c(C(=O)NCCN3CCOCC3)cc3c(=O)n4cccc(C)c4nc32)cc1OC	inactive: 8.4%
9	CC(C)c1ccc(NC(=O)[C@@H](NC(=O)N2CC(=O)Nc3ccccc32)C(C)C)cc1	inactive: 49.1%
10	COc1ccc(Nc2nc(-c3c(C)nc4ncccn34)cs2)cc1	inconclusive: 41.7%
11	CCc1nn(C(C)C(=O)N2CCN(c3ccc(OC)cc3)CC2)c(=O)c2cc3occc3n12 (stereo not given)	inconclusive: 29.4%
18	CCOc1cc(-c2cc(-c3ccccc3)nc(N)c2C#N)ccc1O	inconclusive: 93.4%

# (further entries)

row,Structure (SMILES),activity increase (luciferase signal)
1,COc1ccccc1N(C)S(=O)(=O)c1ccc(C(=O)OCC(=O)N2CCC2)cc1,inconclusive: 54.6%
2,O=c1c2c3c(sc2ncn1/N=C/c1ccc([N+](=O)[O-])o1)CCCC3,inconclusive: 36.2%
3,Nc1ccc(-c2cc(NC=O)c3ncc(-c4cccc(C(F)(F)F)c4)n3c2)cn1,inactive: 7.33%
4,Cn1nc(-c2ccc(Cl)cc2)c2cc(C(=O)NCCCN3CCOCC3)sc21,inconclusive: 44.9%
5,COc1ccc(-c2cnc3c(NC=O)cc(-c4ccccc4)cn23)cc1OC,inconclusive: 15.5%
6,Cc1ccc2oc(C(=O)NCc3ncc(C)[nH]3)c(C)c2c1,inconclusive: 84.2%
7,COc1ccc(OC)c(-c2nnc3n2N=C(c2ccc(OC)c(OC)c2)CS3)c1,inconclusive: 26.7%
8,Cc1cc(C)c2c(c1)cc(C)c1nnc(SCC(=O)Nc3cc(C)on3)n12,inconclusive: 53.7%
9,O=C(N/N=C/c1ccccn1)c1cc(-c2ccncc2)nc2ccccc12,inconclusive: 40.2%
10,CCN(CC)S(=O)(=O)c1cccc(C(=O)N/N=C/c2ccc([N+](=O)[O-])o2)c1,inconclusive: 5.82%
11,CCN(CC)CCOc1c(Br)ccc2c1sc1nc3n(c(=O)c12)CCC3,inconclusive: 33.5%
12,CCSc1nccc(-c2nn(-c3ccc(C)cc3)ccc2=O)n1,inconclusive: 62.7%
13,COc1ccc(C(=O)/C=C2/C(=O)Nc3ccccc32)cc1OC,inconclusive: 66.5%
14,C(=N\Nc1nc2ccccc2[nH]1)/c1ccc2ncccc2c1,inconclusive: 62.2%
15,Cc1[nH][nH]c(=O)c1C(c1ccc(-c2cccc(Cl)c2)o1)c1c(C)[nH][nH]c1=O,inactive: 32.4%
16,COc1cc(C2c3[nH]c4ccccc4c3CC3COC(=O)N32)cc(OC)c1O (stereo not given),inconclusive: 3.21%
17,CCN1Cc2c(/C=C/c3ccccc3)nc3ccc(OC)cc3c2N(c2cccc(Cl)c2)C1,inactive: -74.9%
18,CCCCc1ccc(N/C(N)=N/c2nc(C)cc(C)n2)cc1,inactive: -16.7%
19,COC(=O)CNC(c1ccccc1Cl)c1cc(Br)ccc1NC(=O)CCN1CCOCC1 (stereo not given),inactive: 0.216%
20,Cc1ccccc1OCCc1c(C)[nH]c(=S)[nH]c1=O,inactive: 24.5%
21,COC(=O)c1cc(C(=O)c2c(C)cc3ccccn23)cc([N+](=O)[O-])c1,inconclusive: 38.7%
22,COc1cc(NC(=O)c2ccccc2F)ccc1NC(=O)c1cc2ccccc2o1,inactive: 8.43%

row,Structure (SMILES),activity increase (luciferase signal)
1,Cc1ccc(-c2cc(NC(=O)CCl)n(-c3ccccc3)n2)cc1,inconclusive: 85.7%
2,COc1ccccc1N1CCN(C(=O)c2oc3ccccc3c2C)CC1,inconclusive: 45.9%
3,Cc1cc(C)c(S(=O)(=O)N(C)CC(=O)N2CCCC2)c(C)c1,inconclusive: 64.8%
4,O=C(/C=C/c1ccncc1)c1ccc2c(c1)OCCO2,inconclusive: 90.6%
5,C/C(=N/NC(=O)c1cccs1)c1ccc(NC(=O)COc2ccc(Cl)cc2Cl)cc1,inactive: 13.5%
6,COc1ccc(C2=NOC(COc3ccc4c(C)cc(=O)oc4c3)C2)c(OC)c1 (stereo not given),inconclusive: 27.3%
7,CCNc1nc(NC(C)(C)C)nc(SC(C(C)=O)C(C)=O)n1,inconclusive: 26.2%
8,Cc1c(C(=O)OCC(C)C)[nH]c2c1C(=O)CC(c1cccs1)C2 (stereo not given),inconclusive: 47.4%
9,Cc1cc2c(cc(C(=O)OCC(=O)NCc3cccs3)n2C(C)C)o1,inconclusive: 49.3%
10,Cc1noc(C)c1COc1ccccc1C(=O)N1CCN(c2cccc(C(F)(F)F)c2)CC1,inactive: 25.9%
11,Cc1cc(C)c2sc(NC(=O)c3ccc([N+](=O)[O-])o3)nc2c1,inconclusive: 53.7%
12,O=C(Nc1ccc(-c2nc3cc(NC(=O)c4cccs4)ccc3o2)cc1)c1cccs1,inactive: -4.38%
13,CCCn1c2ccccc2c2cnn(CC(=O)NC3CCCC(C)C3C)c(=O)c21 (stereo not given),inactive: -3.18%
14,c1ccc(-n2nnnc2-c2cccc3ccccc23)cc1,inactive: 43.7%
15,Cc1cc(Sc2ccc([N+](=O)[O-])cn2)ccc1Br,inconclusive: 39%
16,COc1ccccc1N1CCN(C(=O)c2[nH]c(C(F)(F)F)nc2-c2ccccc2)CC1,inconclusive: 36.8%
17,Cc1c(Cl)cccc1N=Cc1ccc([N+](=O)[O-])s1,inconclusive: 16.7%
18,CN(C)Cc1c(C(=O)N/N=C/c2ccccc2OCc2c(F)cccc2Cl)nnn1-c1nonc1N,inconclusive: 27.7%
19,O=C1CCCC2=C1C1(CCCCC1)N=C(Nc1nc3ccccc3o1)N2,inconclusive: 47.9%
